Reference: PubChem BioAssay AID686937 (Drosophila RNAi Screening Center, 2013)
Aim: 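Genes whose loss weakens secretory pathway function in fly cells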 (primary screen). Cells: Drosophila S2 cells expressing secreted horseradish peroxidase. Reagents: long dsRNA against Drosophila genes. Duration: about 5.5 days (5 days dsRNA, then 12 h reporter induction). Challenge: reporter expression induced after 5 days of dsRNA, read 12 h later; inducer not stated. Measurement: 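After 5 days of dsRNA and 12 h of reporter induction, medium peroxidase read by chemiluminescence and scored as per-plate z-score; higher values mean more reporter released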. Direction: z-score: higher = more reporter secreted into medium.
The screen tested about 23,000 reagents; this is a random part of those that have a named target and a result. 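Reduced-secretion tags in replicate 1 do not always agree with the z-scores; no criterion for assigning the tags was given.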 Names joined by + are all predicted targets of the reagent. The record does not give: the amount of reagent.

no.	target gene	DRSC id	z-score, replicate 1	z-score, replicate 2	z-score, replicate 3	z-score, replicate 4	phenotype, replicate 1
1	Syx8 (Syntaxin 8)	DRSC10402	0.49	0.35	0.18	0.53	
2	Syx8 (Syntaxin 8)	DRSC22498	0.05	-0.31			
3	spartin	DRSC12187	0.52	0.62			
4	E(spl)mgamma-HLH (Enhancer of split mgamma, helix-loop-helix)	DRSC16699	0.33	0.48			
5	CG17672	DRSC09230	-5.78	-4.43			reduced secretion
6	CG17672	DRSC10278	-0.06	0.23			
7	Zfrp8 (Zinc finger protein RP-8)	DRSC04352	0.3	-0.24			
8	Tep1 (Thioester-containing protein 1)	DRSC03450	-0.4	0.12			
9	E23 (Early gene at 23)	DRSC00425	-1.75	-1.52			reduced secretion
10	E23 (Early gene at 23)	DRSC00593	0.27	0.21			
11	Cortactin	DRSC16612	0.12	0.34			
12	CG8329	DRSC10978	0.24	0.22			
13	CG43088	DRSC19055	0.3	-0.48			
14	CG43088	DRSC21407	-0.63	-0.13			reduced secretion
15	Pgant2 (Polypeptide N-Acetylgalactosaminyltransferase 2)	DRSC00587	0.49	0.41			
16	kek5 (kekkon 5)	DRSC19438	0.43	0.29			
17	ttm2 (tiny tim 2)	DRSC08268	0.34	0.32			
18	alpha-PheRS (Phenylalanyl-tRNA synthetase, alpha-subunit)	DRSC18224	-0.51	-0.69			
19	vilya	DRSC18588	0.06	0.27			
20	Nepl17 (Neprilysin-like 17)	DRSC14880	-0.06	0.36			
21	Es2	DRSC18663	0.36	0.37			
22	CG13700	DRSC10049	-0.02	0.14			
23	RalGPS (Ral GEF with PH domain and SH3 binding motif)	DRSC06941	0.3	0.1			
24	Polr1B (RNA polymerase I subunit B)	DRSC00780	-0.02	0.04			
25	twy (twitchy)	DRSC10562	0.18	0.23			
26	lncRNA:CR30055 (long non-coding RNA:CR30055)	DRSC22439	2.54	0.11			
27	Ass + CG31286	DRSC12493	0.21	0.42			
28	Tsen2 (tRNA splicing endonuclease subunit 2)	DRSC01557	-0.89	-0.04			
29	Qsox2 (Quiescin sulfhydryl oxidase 2)	DRSC15287	0.42	0.23			
30	Cda9 (Chitin deacetylase-like 9)	DRSC06593	-0.07	0.34			
31	CG31948	DRSC00740	0.12	0.25			
32	CG13989	DRSC02321	0.22	0.15			
33	CG10949	DRSC02112	0.18	0.23			
